According to the supplement of paper PMC8551327:
Where a name gives a salt, the structure may show the parent alone. The list shows a part of the results. No stated cut-off is given here; in the data, active = 1.25 or more and inactive = the rest. Many values rest on one well or one pass, so single values are uncertain.

Each compound was assayed on Kcc2-LUC knock-in mouse primary cortical neurons (Kcc2 promoter reporter) (assay: Kcc2 promoter-driven luciferase activity relative to vehicle control (fold of vehicle (ratio)); higher = stronger Kcc2 promoter activation (Kcc2 expression enhancer)). Conditions: 100 nM; 48 h.

Kcc2 promoter-driven luciferase activity, active:
COC(=O)c1c[nH]c2c1-c1cc(C(=O)OCc3ccccc3)n(S(=O)(=O)c3ccc(C)cc3)c1C(=O)C2=O 1.28
NC(=S)N/N=C/c1ccc(OC(=O)COc2ccccc2Cl)cn1 1.4
CO[C@H]1/C=C\C=C(/C)C(=O)NC2=CC(=O)C(N)=C(C[C@@H](C)C[C@H](OC)[C@H](O)[C@@H](C)/C=C(\C)[C@@H]1OC(N)=O)C2=O [Geldanamycin, 17-amino-17-demethoxy-] 1.43

Kcc2 promoter-driven luciferase activity, inactive:
CC(=O)O[C@@H]1CO[C@H]2O[C@H]3[C@@H](C(C=O)=C[C@H](O)[C@@H]4C5=C(C(C)C)CC[C@]5(C)CC[C@@]34C)[C@@]2(O)C1=O [Straital B] 0.87
COc1ccc(/C=C\c2cc(OC)c(OC)c(OC)c2)cc1OP(=O)(O)O [Combretastatin A-4 Phosphate Ammonium salt] 1.21
C[n+]1c(-c2ccc(/C=C/C=N/NC(=O)c3ccc(C(=O)N/N=C/C=C/c4ccc(-c5cn6ccccc6[n+]5C)cc4)cc3)cc2)cn2ccccc21 1.14
O=C(Nc1ccc(Sc2ccc(N=Nc3c(O)c(S(=O)(=O)O)cc4cc(S(=O)(=O)O)ccc34)cc2)cc1)c1ccc(N=Nc2c(O)ccc3c(S(=O)(=O)O)cc(S(=O)(=O)O)cc23)cc1 1.07
Oc1[nH]c2ccccc2c1N=Nc1nc(-c2ccc(Br)cc2)cs1 0.85
CN(CCc1ccccn1)c1ccc2c(c1)C(=O)c1ccccc1-2 0.68
COC(=O)C1C(O)C(C)C(O)OC1C(C)C(O)C(C)/C=C\C=C(/C)C(=O)Nc1c(C)c(OC(C)=O)c2c(c1O)C(=O)C(C)=C1OCOC(/C(C)=C/C(C)=O)=C12 (centres undefined) [Streptoval C] 0.72
COc1ccc2nc3cc([N+](=O)[O-])ccc3c(NNc3ccccc3)c2c1 [1-(2-Methoxy-6-nitroacridin-9-yl)-2-phenylhydrazine] 0.92
CC(=O)c1sc2[n+](c1C)C(=O)/C(=C\c1ccccc1Cl)S2 1.04
Cc1ccccc1OCC(COC(=O)Nc1ccccc1)OC(=O)Nc1ccccc1 (centres undefined) 0.17
O=C1C=C(Nc2ccccc2C(=O)CC(=O)C(=O)Nc2ccc(Cl)cc2)c2ccccc2C1=O 1.13
C[C@]12C=CC(=O)C=C1[C@@H](F)C[C@H]1[C@@H]3CC[C@](O)(C(=O)CO)[C@@]3(C)C[C@H](O)[C@@]12F [6-alpha-Fluoro-isoflupredone] 0.96
CO[C@H]1[C@@H](OC(=O)/C=C/C=C/C=C/C=C/C(=O)O)CC[C@@]2(CO2)[C@@H]1[C@@]1(C)O[C@@H]1CC=C(C)C [Fumagillin Dicyclohexylamine Salt] 0.75
CCN(CC)CCN1C(=O)c2c(c3c4cccc(Cl)c4n(C4OC(CO)C(OC)C(O)C4O)c3c3[nH]c4c(Cl)cccc4c23)C1=O (centres undefined) [Rebeccamycin Analog] 0.86
CN(C)CC1CCC/C(=C\c2ccc(OC(=O)/C=C/c3ccccc3)cc2)C1=O (centres undefined) 0.9
Cc1ccccc1NC(=O)C(=O)C(C#N)c1ccccc1C (centres undefined) [3-Cyano-N,3-bis(2-methylphenyl)-2-oxopropanamide] 0.93
O=C(c1nc2ccc(Cl)cc2[nH]c1=O)C(O)c1ccc2c(c1)OCO2 (centres undefined) 0.91
C[C@H]1O[C@@H](c2ccc3c(c2O)C(=O)C2=C(C3=O)[C@@]3(O)C(=O)C[C@](C)(O)C[C@@]3(O)C=C2)C[C@@H](O)[C@@H]1O [Aquaymycin] 1.24
Cc1cc(O)c2c(c1)C(=O)c1cc(O)cc(O)c1C2=O [Emodin] 1.18
NC1N=C(c2ccc(Cl)cc2)C2=C(N1)c1ccccc1CC2 (centres undefined) 1.13
CC[C@H](C)[C@@H](N)C1=N[C@@H](C(=O)N[C@H](CC(C)C)C(=O)N[C@@H](CCC(=O)O)C(=O)N[C@@H](C(=O)N[C@@H]2CCCCNC(=O)[C@@H](CC(N)=O)NC(=O)[C@H](CC(=O)O)NC(=O)[C@@H](Cc3c[nH]cn3)NC(=O)[C@H](Cc3ccccc3)NC(=O)[C@@H]([C@@H](C)CC)NC(=O)[C@H](CCCN)NC2=O)[C@@H](C)CC)CS1 [Bacitracin A] 0.74

Sorted by number of heavy atoms (largest number first): some entries from above
Kcc2 promoter-driven luciferase activity, inactive:
CCN(CC)CCN1C(=O)c2c(c3c4cccc(Cl)c4n(C4OC(CO)C(OC)C(O)C4O)c3c3[nH]c4c(Cl)cccc4c23)C1=O (centres undefined) [Rebeccamycin Analog] 0.86
Cc1ccccc1OCC(COC(=O)Nc1ccccc1)OC(=O)Nc1ccccc1 (centres undefined) 0.17
CN(CCc1ccccn1)c1ccc2c(c1)C(=O)c1ccccc1-2 0.68
